± gives the standard error. Many of these values have a large error.
B1: glmS ribozyme (parent)
chain: AUAAAAGCGCCAGAACUACAGAAAUGUAGUUGACGAGGAGGAGGUUUAUCGAAUUUUCGGCGGAUGCCUCCAAA

Variants of: B1
Experiment: self-cleavage kobs at 2500 uM GlcN6P; higher = faster cleavage; RNA array
Settings: with glucosamine-6-phosphate
Method in brief: (§1)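 Tiles bearing barcoded ribozyme variants, transcribed in situ by E. coli RNA polymerase on sequenced MiSeq chips, were imaged over ~14 h at 37 °C using a hybridised Cy3 probe. Glucosamine-6-phosphate was supplied at 40 μM to 10 mM in HEPES/KCl/Mg(OAc)2 buffer. kobs came from one- or two-exponential decay fits to normalised per-tile medians, and weighted Michaelis–Menten fits then provided kcat and KM.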

Variant	self-cleavage kobs at 2500 uM GlcN6P
G37C C58U C61U C68G	5.63e-05 ± 3e-05 s⁻¹
U49G G51U C68G	4.42e-05 ± 2.5e-05 s⁻¹
U30G C67G C68U	4e-05 ± 2.3e-05 s⁻¹
C16U A42U C71A	3.51e-05 ± 2.3e-05 s⁻¹
U55A C58U C71A	2.16e-05 ± 2.2e-05 s⁻¹
G35U U47G C50G G62A G66A	3.53e-05 ± 2.2e-05 s⁻¹
G37U G38C C50G A64G C68A	4.74e-05 ± 2.9e-05 s⁻¹
G29A G38C C70A	3.99e-05 ± 3.1e-05 s⁻¹
U31C G32U G59U	3.4e-05 ± 3.1e-05 s⁻¹
G26U G60A C68A	3.78e-05 ± 2.9e-05 s⁻¹
U49G C70A	1.79e-05 ± 1.1e-05 s⁻¹
G32C C50G	3.47e-05 ± 3.2e-05 s⁻¹
G44U C50U C67G	2.81e-05 ± 2.1e-05 s⁻¹
U45A U54C	0.042 ± 0.024 s⁻¹
U46G C58G	2.02e-05 ± 1.2e-05 s⁻¹
C58G U69A	3.21e-05 ± 2.5e-05 s⁻¹
G37U C67U C70G	3.78e-05 ± 2.8e-05 s⁻¹
A15C U30G C68G	6.69e-05 ± 3.9e-05 s⁻¹
C16U C50G	0.000799 ± 0.00041 s⁻¹
G43U G66A	2.6e-05 ± 1.6e-05 s⁻¹
A42G G44C	1.9e-05 ± 1.9e-05 s⁻¹
G40U U47A C70G	4.32e-05 ± 2.8e-05 s⁻¹
A53C C61A	0.00242 ± 0.0018 s⁻¹
U30G U57A C58A	4.74e-05 ± 3.6e-05 s⁻¹

Variant	self-cleavage kobs at 2500 uM GlcN6P
A53U U57A C58U	2.09e-05 ± 2.1e-05 s⁻¹
G26A G60A	2.34e-05 ± 2.2e-05 s⁻¹
G29A C50U C68A	2.57e-05 ± 2e-05 s⁻¹
U30G A64U	2e-05 ± 1.8e-05 s⁻¹
G38A A64G C67U	4.68e-05 ± 3.5e-05 s⁻¹
C34A A36C G37U U69G	6.31e-05 ± 3.2e-05 s⁻¹
U30C A36C C50G G59C	0.000155 ± 0.00013 s⁻¹
A42C U54A C67G	5.08e-05 ± 3.2e-05 s⁻¹
U31G G59U	2.66e-05 ± 1.9e-05 s⁻¹
G37A U69A	1.78e-05 ± 1.4e-05 s⁻¹
G41U A48U	3.01e-05 ± 1.6e-05 s⁻¹
A15G C70G	0.00587 ± 0.0034 s⁻¹
G37U U69G	3.03e-05 ± 1.6e-05 s⁻¹
C50U C61U C67U	0.000972 ± 0.0008 s⁻¹
U31G U49C U54A G63C C68G U69G	2.75e-05 ± 1.8e-05 s⁻¹
U31A C50G U65G	3.72e-05 ± 2.6e-05 s⁻¹
U47C A53G C58G C70A	2.91e-05 ± 2.8e-05 s⁻¹
U56A C58A C70G C71U	3.98e-05 ± 2.4e-05 s⁻¹
U47G U56G C61U C67G C70U	6.53e-05 ± 3.8e-05 s⁻¹
G59A U69A	2.96e-05 ± 2.6e-05 s⁻¹
A15U G41A C70G	4.04e-05 ± 2.3e-05 s⁻¹
U65A C67G C71G	3.43e-05 ± 2.4e-05 s⁻¹
G41A A42C C71G	3.24e-05 ± 2e-05 s⁻¹
A33G G51A U55G C67G	4.97e-05 ± 2.5e-05 s⁻¹

Variant	self-cleavage kobs at 2500 uM GlcN6P
U57G G62C C68U C70G	2.65e-05 ± 1.7e-05 s⁻¹
U30A A48U	3.1e-05 ± 1.9e-05 s⁻¹
U30C G41U	4.59e-05 ± 2.3e-05 s⁻¹
A15U U55G C58U	3.41e-05 ± 2.3e-05 s⁻¹
C16U A42U A53U	2.97e-05 ± 1.7e-05 s⁻¹
U56G G60A	1.83e-05 ± 1.5e-05 s⁻¹
G29C U49G	< 1e-05 s⁻¹
G32C C67U	1.79e-05 ± 1.4e-05 s⁻¹
A52U U56C	1.86e-05 ± 1.4e-05 s⁻¹
C16G C61U C68A U69A	2.42e-05 ± 2e-05 s⁻¹
G66C C67G	2.11e-05 ± 1.3e-05 s⁻¹
C50G U57G	5.27e-05 ± 2.7e-05 s⁻¹
G51A	< 1e-05 s⁻¹
A36U U49A A53C	2.37e-05 ± 2.2e-05 s⁻¹
A33U U46C C70U	2.82e-05 ± 1.7e-05 s⁻¹
A53U C58U C67U	3.34e-05 ± 2.5e-05 s⁻¹
A33U G40A	1.04e-05 ± 7.7e-06 s⁻¹
U55G U57G	1.4e-05 ± 1.3e-05 s⁻¹
A33C C50G G59C A64G	4.03e-05 ± 3e-05 s⁻¹
A15U U49G C50G G63A	2.83e-05 ± 2.2e-05 s⁻¹
A33U U54A U57G	4.51e-05 ± 3.2e-05 s⁻¹
A39G C61U	3.6e-05 ± 1.8e-05 s⁻¹
A33G U56G A64G C70A	3.8e-05 ± 2.1e-05 s⁻¹
C58A G66C	4.03e-05 ± 2e-05 s⁻¹

Variant	self-cleavage kobs at 2500 uM GlcN6P
A33G C34G G35U A52G U69A	0.000325 ± 0.00017 s⁻¹
U54G G60A	3.43e-05 ± 2e-05 s⁻¹
G62U C70G	1.73e-05 ± 1.7e-05 s⁻¹
A15C G32U C34U U46C C50A U55G	0.000152 ± 9.2e-05 s⁻¹
A42C U54G	2.45e-05 ± 1.7e-05 s⁻¹
U49G C50U G66U C70U	5.04e-05 ± 3.4e-05 s⁻¹
U31G C34A G37U C67U	4.39e-05 ± 3.2e-05 s⁻¹
C50G G62C	3.19e-05 ± 1.9e-05 s⁻¹
C50G G62U	2.67e-05 ± 1.7e-05 s⁻¹
U30G A48U U65A U69G C70U	2.46e-05 ± 2.2e-05 s⁻¹
A39U U47A G59A C70U	4.45e-05 ± 2.7e-05 s⁻¹
G37A U56G C70G	1.56e-05 ± 1.5e-05 s⁻¹
G43A A53U C70U	4.13e-05 ± 2.2e-05 s⁻¹
A52C C61G G63U C67A	5.07e-05 ± 2.8e-05 s⁻¹
U57C U69G	2.55e-05 ± 1.4e-05 s⁻¹
G32C G66A	1.42e-05 ± 1.2e-05 s⁻¹
G66U C67A C70G	2.75e-05 ± 2.6e-05 s⁻¹
C16A G59U C68G	3.73e-05 ± 2.4e-05 s⁻¹
G29A C67U C71G	4.96e-05 ± 2.6e-05 s⁻¹
G32A A52G A64G	0.000101 ± 6.6e-05 s⁻¹
C50G U55G U56A C67G	3.92e-05 ± 2.1e-05 s⁻¹
U55C U69G	2.08e-05 ± 1.4e-05 s⁻¹
C50U U54G C70A	6.19e-05 ± 3.2e-05 s⁻¹
G37C U69G	2.42e-05 ± 1.7e-05 s⁻¹

Reprinted at random: seven entries already listed.
Variant	self-cleavage kobs at 2500 uM GlcN6P
U49G C50U G66U C70U	5.04e-05 ± 3.4e-05 s⁻¹
G37A U56G C70G	1.56e-05 ± 1.5e-05 s⁻¹
G62U C70G	1.73e-05 ± 1.7e-05 s⁻¹
A42C U54G	2.45e-05 ± 1.7e-05 s⁻¹
G43A A53U C70U	4.13e-05 ± 2.2e-05 s⁻¹
G66U C67A C70G	2.75e-05 ± 2.6e-05 s⁻¹
C50U U54G C70A	6.19e-05 ± 3.2e-05 s⁻¹

Exported with each value named: part of the list above
U31G C34A G37U C67U
  self-cleavage kobs at 2500 uM GlcN6P = 4.39e-05 ± 3.2e-05 s⁻¹
G37A U56G C70G
  self-cleavage kobs at 2500 uM GlcN6P = 1.56e-05 ± 1.5e-05 s⁻¹
G43A A53U C70U
  self-cleavage kobs at 2500 uM GlcN6P = 4.13e-05 ± 2.2e-05 s⁻¹
C50G U55G U56A C67G
  self-cleavage kobs at 2500 uM GlcN6P = 3.92e-05 ± 2.1e-05 s⁻¹

Next records follow.

Variant	self-cleavage kobs at 2500 uM GlcN6P
U54A U57A G66U	2.9e-05 ± 2.6e-05 s⁻¹
G29A U47G	0.000138 ± 9.6e-05 s⁻¹
A15U A33U C70U	4.45e-05 ± 3.1e-05 s⁻¹
A33G G62U U69G C70G	4.9e-05 ± 2.8e-05 s⁻¹
U47C U57G	2.37e-05 ± 2.1e-05 s⁻¹
U47A C61U	2.23e-05 ± 1.5e-05 s⁻¹
A53G C58G C71G	0.000722 ± 0.00036 s⁻¹
G59A C61G C70G	2.02e-05 ± 1.6e-05 s⁻¹
C16U A33U C67A	2.37e-05 ± 1.7e-05 s⁻¹
A64U C71A	3.36e-05 ± 1.8e-05 s⁻¹
C16A C58U C71U	3.37e-05 ± 2.1e-05 s⁻¹
G32A G59A C70U	4.14e-05 ± 2.9e-05 s⁻¹
C50A C71U	1.58e-05 ± 9.5e-06 s⁻¹
G63A C70G C71G	3.54e-05 ± 2.6e-05 s⁻¹
U55A U69G C71A	3.32e-05 ± 3e-05 s⁻¹
G37C U45A A53U	4.35e-05 ± 3e-05 s⁻¹
A52U C67G C68U	3.98e-05 ± 2.2e-05 s⁻¹
A33U C34U A36C U69G	0.00279 ± 0.0014 s⁻¹
G37C C70G	2.14e-05 ± 1.8e-05 s⁻¹
U54G U57G C58G	2.05e-05 ± 2e-05 s⁻¹
A15G C34G C68A	3.52e-05 ± 2.6e-05 s⁻¹
U57A G63A U69A	3.43e-05 ± 3.3e-05 s⁻¹
G29C U54A G66U C71U	3.25e-05 ± 3.1e-05 s⁻¹
U47G A52U C68G	4.51e-05 ± 3e-05 s⁻¹

Variants of: B1
Experiment: self-cleavage kobs at 10000 uM GlcN6P; higher = faster cleavage; RNA array
Settings: with glucosamine-6-phosphate
Method in brief: as §1

Variant	self-cleavage kobs at 10000 uM GlcN6P
A12G A15U U54C C67G	3.06e-05 ± 1.7e-05 s⁻¹
G7A U31G	2.19e-05 ± 1.9e-05 s⁻¹
G13U U57A	1.99e-05 ± 1.1e-05 s⁻¹
G32C C50G	0.000728 ± 0.00068 s⁻¹
G7C C10G C67G	1.95e-05 ± 1.9e-05 s⁻¹
A12U C61U	2.19e-05 ± 1.3e-05 s⁻¹
C16U C50G	2e-05 ± 1.6e-05 s⁻¹
G43U G66A	2.68e-05 ± 1.7e-05 s⁻¹
G13A U49G	2.27e-05 ± 1.4e-05 s⁻¹
G29C A52G U69G	1.89e-05 ± 1.6e-05 s⁻¹
G9A U54A	2.39e-05 ± 1.5e-05 s⁻¹
A6G C11A C50G	0.000172 ± 0.00012 s⁻¹
G13C U46G	1.37e-05 ± 1.2e-05 s⁻¹
C10U U54C U56G	2.07e-05 ± 1.5e-05 s⁻¹
A14G A39G U46C	0.00865 ± 0.0059 s⁻¹
G13C U69G	6.85e-05 ± 3.8e-05 s⁻¹
G29C U30C G37C C70G	3.09e-05 ± 1.7e-05 s⁻¹
G29C A39C U46G	3.44e-05 ± 2.1e-05 s⁻¹
G29A G41C	2.74e-05 ± 1.4e-05 s⁻¹
C8G U47A G62C	1.52e-05 ± 1.5e-05 s⁻¹
G7A A12C	1.04e-05 ± 1e-05 s⁻¹
G29C U46G U47A C70G	2.75e-05 ± 1.5e-05 s⁻¹
C11A G59C	2.52e-05 ± 1.4e-05 s⁻¹
U30C G41U	1.39e-05 ± 1.1e-05 s⁻¹
G29C U49G	1.64e-05 ± 1.1e-05 s⁻¹
A6U U56A C67A	3.41e-05 ± 1.8e-05 s⁻¹
A52U U56C	2.41e-05 ± 1.2e-05 s⁻¹

Variant	self-cleavage kobs at 10000 uM GlcN6P
A15C U54C C70U C71U	2.61e-05 ± 2e-05 s⁻¹
C50G U57G	3.92e-05 ± 2.3e-05 s⁻¹
A6U G40C	1.38e-05 ± 1.3e-05 s⁻¹
A6U C67A C70U	3.54e-05 ± 1.9e-05 s⁻¹
A33U U46C C70U	2.1e-05 ± 1.9e-05 s⁻¹
A15U G41C	1.44e-05 ± 1.3e-05 s⁻¹
G29U U55G G59U C70G	2.48e-05 ± 2.2e-05 s⁻¹
G29A G38U G62U C68A	2.21e-05 ± 2.1e-05 s⁻¹
U54G G60A	2e-05 ± 1e-05 s⁻¹
G13U A15G C70A	1.76e-05 ± 1e-05 s⁻¹
A12G G37A U45G	1.57e-05 ± 1.1e-05 s⁻¹
A15C C50G A53G	4.16e-05 ± 2.1e-05 s⁻¹
A6C U30G G32C U45G C50G G60U C67G	0.000448 ± 0.00023 s⁻¹
G7A A39G C71U	2.15e-05 ± 1.4e-05 s⁻¹
G13U U31G U56C	3.28e-05 ± 2.1e-05 s⁻¹
G13C G40U	2.8e-05 ± 1.5e-05 s⁻¹
A14U A53U U57G	2.83e-05 ± 2e-05 s⁻¹
C16U G60A	1.29e-05 ± 8.6e-06 s⁻¹
G13A C58U C67G	2.06e-05 ± 1.7e-05 s⁻¹
U55C U69G	1.73e-05 ± 1.7e-05 s⁻¹
C11G C70U	1.45e-05 ± 1.4e-05 s⁻¹
G29A A53G C68G	2.99e-05 ± 1.6e-05 s⁻¹
U47C U57G	2.28e-05 ± 1.3e-05 s⁻¹
A12G U57G	2.06e-05 ± 1.8e-05 s⁻¹
A14U G32U C71G	3.07e-05 ± 1.6e-05 s⁻¹
C10A G29U C70G	2.33e-05 ± 2e-05 s⁻¹
G7U A52G C70G	3.88e-05 ± 2.3e-05 s⁻¹

From the supplement of paper PMC7125110
